Columns and labels:
mice [1] = format: in vivo; settings: repeated evaluation with morphine sulfate for comparison; 30 min
Description: The test compounds were administered by subcutaneous injection 30 minutes before testing.

mice [2] = settings: mouse, in vivo
Description: Physical dependency liability was evaluated in mice by the procedure of Saelens, et al., Aoch. Int. Pharmacodynam, 190:213-218, 1971. In this procedure, mice are administered increasing doses of a test compound at intervals on two consectuive days. The last dosage on the second day is followed by intraperitoneal injection of the morphine antagonist, naloxone, at a dosage of 100 mg/kg, and the mice are observed for characteristic jumping behavior indicative of opiate withdrawals or morphine antaganism. […].

[3] = format: in vivo; settings: intraperitoneal injection 45-60 minutes before testing

CN1CC[C@]23c4c5ccc(O)c4O[C@H]2[C@@H](O)C=C[C@H]3[C@H]1C5.O=S(=O)(O)O [morphine sulfate]
ED50 (hot plate), repeated evaluation (mice [1]): 6.3 mg/kg | mice jumping after naloxone (mice [2]): 5 of 9 | ED50 (tail pinch) [3]: 1.2 mg/kg

Source: US4183939A, “Glaucine analgesic method” (priority 1978, dated 1980)
